Experimental data published in patent US7262177B2, “Conjugates of glycosylated/galactosylated peptide, bifunctional linker, and nucleotidic monomers/polymers, and related compositions and methods of use” (priority 2000, dated 2007).
For at least one compound, name, drawing or mass did not settle the structure.

Tested on: Hep G2 cells
Assay: Cell toxicity, Trypan Blue exclusion
Assay type: cell-based, human
Settings: 72 hrs

Compound	decrease in viable cells (2 μM) [%]	decrease in viable cells (8 μM)
CC(=O)N[C@H]1[C@H](OCCCCCCNC(=O)CC[C@H](NC(=O)CC[C@H](NC(=O)[C@H](Cc2ccc(O)cc2)NC(=O)C2CCC(CN3C(=O)CC(SCCCCCCOP(=O)(O)OC[C@H]4O[C@@H](n5cc(F)c(=O)[nH]c5=O)C[C@@H]4O)C3=O)CC2)C(=O)NCCCCCCO[C@@H]2O[C@H](CO)[C@H](O)[C@H](O)[C@H]2NC(C)=O)C(=O)NCCCCCCO[C@@H]2O[C@H](CO)[C@H](O)[C@H](O)[C@H]2NC(C)=O)O[C@H](CO)[C@H](O)[C@@H]1O (stereo partly shown) [po 1-mer, YEE(ahGalNAc)3-SMCC-poFU]	~50	75%
CC(=O)N[C@H]1[C@H](OCCCCCCNC(=O)CC[C@H](NC(=O)CC[C@H](NC(=O)[C@H](Cc2ccc(O)cc2)NC(=O)C2CCC(CN3C(=O)CC(SCCCCCCOP(O)(=S)OC[C@H]4O[C@@H](n5cc(F)c(=O)[nH]c5=O)C[C@@H]4O)C3=O)CC2)C(=O)NCCCCCCO[C@@H]2O[C@H](CO)[C@H](O)[C@H](O)[C@H]2NC(C)=O)C(=O)NCCCCCCO[C@@H]2O[C@H](CO)[C@H](O)[C@H](O)[C@H]2NC(C)=O)O[C@H](CO)[C@H](O)[C@@H]1O (stereo partly shown) [ps 1-mer, YEE(ahGalNAc)3-SMCC-psFU]	~25	about 45%
